Measurements published in US7993662B2, “Transparent solid oil cosmetics” (Kokyu Alcohol Kogyo Co., Ltd., priority 2005, dated 2011).
At least one compound was matched to its structure with a doubt left.

Assay: Evaluation of transparency −1 (maximum transmittance of visible light 400 to 800 nm, 1 cm thick cell, visual against control)
Format: physicochemical
[1] = […] A200V: 30% with 70% of the listed component

Structure (SMILES) | Transparency [1] | Transparency (UNICLEAR 100VG: 30% with 70% of the listed component)
CCCCCCCCCCCCCCC(CO)CCCCCCCCCCCC (stereo not drawn) [Example 28SP, Dodecylhexadecanol] | A (Transparent 30% or greater) | –
CCC(COC(=O)CCCCCCCCCCCCCCC(C)C)(COC(=O)CCCCCCCCCCCCCCC(C)C)COC(=O)CCCCCCCCCCCCCCC(C)C [TTI, Trimethylolpropane triisostearate] | C (Cloudy less than 10%) | C (Cloudy less than 10%)
